No constants are given. Whether binding was seen depends on the method and setting. Binding can be weak; no strength is given.
What was measured:
[1] = molecular target: rabbit EL with C2 tag (rabbit); experiment: ELISA: antibody captured on anti-mouse IgG-Fc plate, C2-tagged EL heparin extract added, anti-C2-tag detection, A450 (Example 8)
[2] = molecular target: cynomolgus monkey EL with C2 tag (cynomolgus monkey); experiment: as above
[3] = molecular target: rabbit EL with C2 tag (rabbit); experiment: sandwich ELISA: antibody captured on anti-mouse IgG-Fc plate, EL heparin extract added, detected by anti-C2-tag antibody
[4] = molecular target: cynomolgus monkey EL with C2 tag (cynomolgus monkey); experiment: as above

Binder	binding [1]	binding [2]	binding [3]	binding [4]
14E1 antibody (antibody, V domains shown) VH: QVQLQQSGAELVKPGASVRLSCKASGYTFTKYTIHWVKQRSGQGLEWIGWFYPGSDSIKYNEKFKDKATLTADKSSRTVYMELSRLTSEDSAVYFCARHEEYTNSLAYWGQGTLVTVSA VL: DIQMTQTTSSLSASLGDRVTISCRASQDISNYLNWYQQQPDGTVKLLIYYTSRLHSGVPSRFSGSGSGTDYSLTISNLEQEDIATYFCQQGYTLPWTFGGGTNLEIK	binds	binds	binds	binds
14A1 antibody (antibody, V domains shown) VH: QIQLVQSGPELKKPGETVKISCKASGYTFTNYGMNWVKQAPGKGLKWMGWINTYSGVPTYADDFKGRFAFSLETSASTAYLQINNFKNEDTATYFCARFSYYGRHYFDYWGQGTALTASS VL: DIVLTQSPASLAVSLGQRATISCKASQSVDYDGDSYMNWYQQKPGQPPKLLIYAASNLKSGIPARFSGSGSGTDFTLNIHPVEEEDAATYYCQQTTDDPPWTFGGGTKLEIK	no binding (tested: about 300 ng/mL)	binds	no binding	binds
7D4 antibody (antibody, V domains shown) VH: QIQLVQSGPELKKPGETVKISCKASGYTFTNYGMNWVKQAPGKDLKWMGWINTYSGVPTYADDFKGRFAFSLETSASTAYLQINNLKNEDTATYFCARFSYYGRHYFDYWGQGTTLTVSS VL: DIVLTQSPASLAVSLGQRATISCKASQSVDYDGDSYMNWYQQKPGQPPQLLIYAASNLGSGIPARFSGSGSGTDFTLNIHPVEEEDAATYYCHQSTDDPPWTFGGGTKLEIK	no binding (tested: about 300 ng/mL)	binds	no binding	binds
13B3 antibody (antibody, V domains shown) VH: EVQLQQSGPELLKPGASVKISCKASGYTFTEYTMHWVKQSHGKSLEWIGSINPYYGGTSYNEKFKDKATLTVDKSSNTAYMEFRSLTSEDCAVYYCARYGNYVGYFDYWGQGTTLTVSS VL: ENVLTQSPAIMSASLGEKVTMSCRASSSVHYMYWYQQKSDASPKLWIYYTSNLAPGVPDRFSGSGSGNSYSLTISSMEGEDAATYYCQQFTSSPYTFGGGTKLEIK	binds	binds	binds	binds

Further lines, results first:

binding [1]	binding [2]	binding [3]	binding [4]	Binder
binds	binds	binds	binds	23H8 antibody (antibody, V domains shown) VH: EVQLQQSGPELLKPGASVKISCKASGYTFTDNTIHWVKQSHGKSLEWIGHINPYYGGTNNNEKFKDKATLTVDKSSSTAYMELRSLTSEDSAIYYCARKGIYYSSPFDYWGQGTTLTVSS VL: DIQMTQTTSSLSASLGDRVTISCRASQDINNYLNWYQQKPDGTVKLLISYTSKLHSGVPSRFSGSGSGTDYSLTISNLEREDFATYFCQQGNTLPFTFGSGTNLEIK
no binding (tested: about 300 ng/mL)	binds	no binding	binds	53A11 antibody (antibody, V domains shown) VH: EVQLQQSGPELLKPGASVKISCKASGYTFTDYTMHWVKQSHGKSLEWIGGINPYYGGTTYNEKFKDKATLTVDKSSSTAYMELRSLTSEDSAVYYCAKGDYYGGSYNYWGQGTTLTVSS VL: DIVLTQSLATLSVTPGDSVSLSCRASQDISNSLHWYQQKSHESPRLLIKYASQSISGIPSRFSGSGSGTDFTLSINSVETEDFGMYFCQQSNSWPYTFGGGTKLEIK
no binding (tested: about 300 ng/mL)	binds	no binding	binds	55A1 antibody (antibody, V domains shown) VH: QIHLVQSGPELKKPGETVKISCKASGYTFTNYGMNWVKQAPGKGLKWMGWINTYSGVPTYAGDFKGRFAFSLETSASTAYLQINNLKNEDTATYFCARRGYYGRRYFDVWGTGTTVTVSS VL: DIVLTQSPASLAVSLGQRATISCKASQSVDYDVDSYMHWYQQKPGQPPKLLIYAASNLASGIPARFSGGGSGTDFTLNIHPVEEEDVATYYCQQTIEDPPTFGGGTKLEIK
binds	binds	binds	binds	16B3 antibody (antibody, V domains shown) VH: DVKLVESGGGLVQPGGSLKLSCTASGFTFSGYTMSWVRQTPEKRLELVAEISFARDRAFYPDTVKGRFTISRDNAKNTLYLQMSSLKSEDTAMYYCTRLGGRNHDYWYFDVWGTGTTVTVSS VL: DIVLTQSPTSLAVSPGQRATISCRASESVEYYGTSLMQWYQQKPGQRPQLLIYAASNVESGVPARFSGSGSGTDFSLNIHPVEEDDIAVYFCQQSWKVPFTFGSGTKLEIK
binds	binds	binds	binds	19E7 antibody (antibody, V domains shown) VH: QVQLQQPGSVLVRPGASVKLSCKASGYTFTTYWMHWVKQRPGQGLEWIGEIHPYSGNNNNNEKFKGKATLTVDTSSSTAYVDLSRLTSEDSAVYYCARYDSNYVFAYWGQGTLVTVSA VL: QIVLTQSPAIMSASPGEGVTITCSASSSVSYMHWFQQKPGTSPKLWIYSTSNLASGVPARFSGSGSGTSYSLTISRMEAEDAATYYCQQRDSYLTFGSGTKLEVK
